{"sequences": {"note": "Sequences of proteins named here, by UniProt entry; tags and fusion partners are left off.", "UniProt P07477": "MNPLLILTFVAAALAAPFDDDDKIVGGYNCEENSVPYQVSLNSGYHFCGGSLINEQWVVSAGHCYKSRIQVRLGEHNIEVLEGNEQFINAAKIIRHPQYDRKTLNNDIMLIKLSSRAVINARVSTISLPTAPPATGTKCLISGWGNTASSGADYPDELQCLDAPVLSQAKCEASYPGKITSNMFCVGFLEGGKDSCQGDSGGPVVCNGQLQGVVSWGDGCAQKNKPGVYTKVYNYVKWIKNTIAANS"}, "source": "patent US20180118786A1", "about": "“NOVEL lNHIBITORS OF THE ENZYME ACTIVATED FACTOR XII (FXIIA)” (ECOLE POLYTECHNIQUE FEDERALE DE LAUSANNE (EPFL), priority 2015, published 2018)", "binders": {"B1": {"name": "corn trypsin inhibitor (protein, UniProt P01088 29-155, looked up)", "chain": "SAGTSCVPGWAIPHNPLPSCRWYVTSRTCGIGPRLPWPELKRRCCRELADIPAYCRCTALSILMDGAIPPGPDAQLEGRLEDLPGCPREVQRGFAATLVTEAECNLATISGVAECPWILGGGTMPSK"}}, "target": "trypsin (human) (UniProt P07477)", "assay": "protease inhibition assay (FIG. 4)", "note": "Results are given in words; binding and its absence hold for the method and conditions named. Some results given as binding are weak or reduced against the parent protein; the word gives no strength."}
{"binder": "B1", "values": [{"measurement": "binding", "result": "binds"}]}
